Measurements: the supplement of paper PMC10849652
Some of the results follow.

The chains behind the UniProt entries cited, without tags or fusion partners. Where a name states a change or a piece, a line headed by the entry shows the natural chain unless it says otherwise.
UniProt Q8N697: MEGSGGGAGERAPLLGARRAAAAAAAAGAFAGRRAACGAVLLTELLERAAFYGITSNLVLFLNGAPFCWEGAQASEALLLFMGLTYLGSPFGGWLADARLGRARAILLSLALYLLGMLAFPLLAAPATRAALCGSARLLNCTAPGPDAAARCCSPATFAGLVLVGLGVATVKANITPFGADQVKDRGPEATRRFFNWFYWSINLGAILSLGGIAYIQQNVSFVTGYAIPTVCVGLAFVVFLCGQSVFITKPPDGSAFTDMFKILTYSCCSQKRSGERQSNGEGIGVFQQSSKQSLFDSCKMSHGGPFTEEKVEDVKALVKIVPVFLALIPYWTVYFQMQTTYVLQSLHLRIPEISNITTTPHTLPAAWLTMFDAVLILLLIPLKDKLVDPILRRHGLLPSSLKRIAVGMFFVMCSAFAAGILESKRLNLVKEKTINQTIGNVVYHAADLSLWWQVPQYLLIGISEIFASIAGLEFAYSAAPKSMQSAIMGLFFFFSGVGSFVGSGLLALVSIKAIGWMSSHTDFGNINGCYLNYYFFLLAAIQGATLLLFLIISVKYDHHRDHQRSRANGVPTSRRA
UniProt Q8N8R3: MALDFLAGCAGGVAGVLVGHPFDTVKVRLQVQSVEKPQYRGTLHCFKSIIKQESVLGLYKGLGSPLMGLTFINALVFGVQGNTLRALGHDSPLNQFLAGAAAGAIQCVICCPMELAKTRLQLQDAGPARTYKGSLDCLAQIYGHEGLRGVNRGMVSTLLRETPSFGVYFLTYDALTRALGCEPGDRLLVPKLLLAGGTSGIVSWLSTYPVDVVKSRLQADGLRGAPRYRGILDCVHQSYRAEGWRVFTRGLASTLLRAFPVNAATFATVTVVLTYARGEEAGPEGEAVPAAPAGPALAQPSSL
UniProt F5GZS6: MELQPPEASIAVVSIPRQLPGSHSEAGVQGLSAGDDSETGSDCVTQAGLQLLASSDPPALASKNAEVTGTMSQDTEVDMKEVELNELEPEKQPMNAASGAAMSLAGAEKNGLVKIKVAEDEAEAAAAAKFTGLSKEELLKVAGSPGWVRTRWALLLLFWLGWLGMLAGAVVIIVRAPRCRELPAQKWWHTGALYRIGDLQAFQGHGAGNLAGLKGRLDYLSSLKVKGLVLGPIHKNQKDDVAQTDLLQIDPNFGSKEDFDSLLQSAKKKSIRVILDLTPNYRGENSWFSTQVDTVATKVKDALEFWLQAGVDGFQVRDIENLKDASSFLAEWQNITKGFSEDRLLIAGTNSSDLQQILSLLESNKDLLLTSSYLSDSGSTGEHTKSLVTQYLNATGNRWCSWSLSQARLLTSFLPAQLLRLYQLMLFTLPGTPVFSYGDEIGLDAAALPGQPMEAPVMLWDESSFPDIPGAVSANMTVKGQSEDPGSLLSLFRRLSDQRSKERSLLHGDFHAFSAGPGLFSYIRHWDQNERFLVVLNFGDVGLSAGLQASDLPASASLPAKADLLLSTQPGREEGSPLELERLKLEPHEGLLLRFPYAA
UniProt Q3KQZ1: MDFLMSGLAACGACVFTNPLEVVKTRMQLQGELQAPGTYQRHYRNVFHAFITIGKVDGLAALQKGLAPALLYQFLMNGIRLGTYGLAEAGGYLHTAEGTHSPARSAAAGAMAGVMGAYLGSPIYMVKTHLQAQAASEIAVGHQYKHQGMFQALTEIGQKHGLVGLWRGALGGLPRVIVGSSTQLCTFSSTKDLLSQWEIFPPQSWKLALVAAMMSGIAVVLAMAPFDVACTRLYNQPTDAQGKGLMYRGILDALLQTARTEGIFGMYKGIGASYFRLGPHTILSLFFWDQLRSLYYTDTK
UniProt Q9NQQ7: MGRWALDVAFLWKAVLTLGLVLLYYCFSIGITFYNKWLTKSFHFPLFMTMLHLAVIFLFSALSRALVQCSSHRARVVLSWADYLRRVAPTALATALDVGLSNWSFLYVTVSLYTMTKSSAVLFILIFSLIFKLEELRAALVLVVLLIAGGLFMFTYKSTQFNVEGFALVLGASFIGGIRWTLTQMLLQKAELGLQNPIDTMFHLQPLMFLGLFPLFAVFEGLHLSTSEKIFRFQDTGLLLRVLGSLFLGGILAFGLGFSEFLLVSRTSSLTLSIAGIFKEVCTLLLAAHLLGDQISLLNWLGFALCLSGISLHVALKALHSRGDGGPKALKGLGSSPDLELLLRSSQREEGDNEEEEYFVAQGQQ
UniProt Q6ZP29: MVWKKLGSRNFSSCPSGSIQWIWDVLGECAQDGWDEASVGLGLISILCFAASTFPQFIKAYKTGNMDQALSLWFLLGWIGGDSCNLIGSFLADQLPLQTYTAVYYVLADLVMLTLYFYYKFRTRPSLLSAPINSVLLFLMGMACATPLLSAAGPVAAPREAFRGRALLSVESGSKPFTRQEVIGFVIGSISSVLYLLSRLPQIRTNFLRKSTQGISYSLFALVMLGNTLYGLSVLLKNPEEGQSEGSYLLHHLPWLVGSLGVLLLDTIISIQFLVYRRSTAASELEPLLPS
UniProt O95258: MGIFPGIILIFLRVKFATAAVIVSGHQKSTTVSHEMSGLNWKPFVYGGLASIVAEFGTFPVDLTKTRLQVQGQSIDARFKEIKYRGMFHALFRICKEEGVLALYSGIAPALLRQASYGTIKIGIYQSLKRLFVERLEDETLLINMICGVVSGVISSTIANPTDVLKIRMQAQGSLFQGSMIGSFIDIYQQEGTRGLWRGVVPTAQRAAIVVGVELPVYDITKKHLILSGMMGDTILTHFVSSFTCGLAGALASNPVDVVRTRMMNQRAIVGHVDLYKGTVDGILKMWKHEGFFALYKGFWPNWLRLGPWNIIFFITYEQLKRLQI
UniProt Q9HAB3: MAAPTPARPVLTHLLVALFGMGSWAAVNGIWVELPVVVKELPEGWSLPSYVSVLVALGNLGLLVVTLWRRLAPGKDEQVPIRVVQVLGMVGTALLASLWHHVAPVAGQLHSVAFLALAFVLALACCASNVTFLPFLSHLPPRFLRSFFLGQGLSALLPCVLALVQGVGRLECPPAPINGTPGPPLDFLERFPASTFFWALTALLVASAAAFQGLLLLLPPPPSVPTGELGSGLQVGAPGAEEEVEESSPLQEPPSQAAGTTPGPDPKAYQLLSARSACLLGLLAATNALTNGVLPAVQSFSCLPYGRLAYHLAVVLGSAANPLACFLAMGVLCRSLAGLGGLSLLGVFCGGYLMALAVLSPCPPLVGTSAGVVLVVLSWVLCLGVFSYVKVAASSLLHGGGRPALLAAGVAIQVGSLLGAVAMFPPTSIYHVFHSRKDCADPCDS
UniProt Q96K37: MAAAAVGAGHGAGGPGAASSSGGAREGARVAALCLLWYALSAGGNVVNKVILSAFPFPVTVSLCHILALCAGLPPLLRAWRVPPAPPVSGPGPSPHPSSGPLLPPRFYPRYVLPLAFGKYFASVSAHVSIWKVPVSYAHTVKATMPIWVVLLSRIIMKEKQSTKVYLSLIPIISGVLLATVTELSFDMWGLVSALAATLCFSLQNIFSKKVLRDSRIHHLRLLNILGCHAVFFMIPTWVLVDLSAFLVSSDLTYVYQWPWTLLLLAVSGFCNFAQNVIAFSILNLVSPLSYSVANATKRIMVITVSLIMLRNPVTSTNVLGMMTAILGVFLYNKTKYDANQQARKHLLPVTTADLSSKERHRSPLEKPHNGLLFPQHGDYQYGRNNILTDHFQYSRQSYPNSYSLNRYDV
UniProt Q9BRV3: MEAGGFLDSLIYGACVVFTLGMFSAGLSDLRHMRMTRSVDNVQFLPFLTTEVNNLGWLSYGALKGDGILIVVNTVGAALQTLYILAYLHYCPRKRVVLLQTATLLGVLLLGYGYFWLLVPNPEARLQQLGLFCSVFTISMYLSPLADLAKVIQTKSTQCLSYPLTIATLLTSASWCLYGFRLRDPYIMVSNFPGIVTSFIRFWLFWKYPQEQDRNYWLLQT
UniProt A1A5C7: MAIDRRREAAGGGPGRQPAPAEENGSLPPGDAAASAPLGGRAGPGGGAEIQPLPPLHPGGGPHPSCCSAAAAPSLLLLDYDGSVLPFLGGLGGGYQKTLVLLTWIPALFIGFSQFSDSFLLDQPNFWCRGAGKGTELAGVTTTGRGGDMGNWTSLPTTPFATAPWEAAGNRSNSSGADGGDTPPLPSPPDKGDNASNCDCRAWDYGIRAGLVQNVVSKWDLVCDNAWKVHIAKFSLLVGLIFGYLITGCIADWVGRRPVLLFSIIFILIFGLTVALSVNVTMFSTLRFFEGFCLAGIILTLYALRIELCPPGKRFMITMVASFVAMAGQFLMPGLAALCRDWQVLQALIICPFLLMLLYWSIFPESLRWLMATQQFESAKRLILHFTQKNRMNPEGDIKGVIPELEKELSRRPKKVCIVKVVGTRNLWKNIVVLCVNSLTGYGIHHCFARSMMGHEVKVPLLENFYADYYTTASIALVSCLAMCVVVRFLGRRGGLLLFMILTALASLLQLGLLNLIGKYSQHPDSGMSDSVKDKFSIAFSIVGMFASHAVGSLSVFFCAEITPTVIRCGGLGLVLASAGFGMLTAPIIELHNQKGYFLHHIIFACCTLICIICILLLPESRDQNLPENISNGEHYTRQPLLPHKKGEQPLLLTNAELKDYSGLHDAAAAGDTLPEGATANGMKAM
UniProt O15431: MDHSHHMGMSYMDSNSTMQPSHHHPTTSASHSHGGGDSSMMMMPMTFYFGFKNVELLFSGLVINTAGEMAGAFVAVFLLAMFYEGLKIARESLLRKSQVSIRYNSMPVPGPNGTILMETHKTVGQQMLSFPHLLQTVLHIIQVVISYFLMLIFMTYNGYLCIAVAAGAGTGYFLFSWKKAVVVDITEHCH
UniProt Q0GE19: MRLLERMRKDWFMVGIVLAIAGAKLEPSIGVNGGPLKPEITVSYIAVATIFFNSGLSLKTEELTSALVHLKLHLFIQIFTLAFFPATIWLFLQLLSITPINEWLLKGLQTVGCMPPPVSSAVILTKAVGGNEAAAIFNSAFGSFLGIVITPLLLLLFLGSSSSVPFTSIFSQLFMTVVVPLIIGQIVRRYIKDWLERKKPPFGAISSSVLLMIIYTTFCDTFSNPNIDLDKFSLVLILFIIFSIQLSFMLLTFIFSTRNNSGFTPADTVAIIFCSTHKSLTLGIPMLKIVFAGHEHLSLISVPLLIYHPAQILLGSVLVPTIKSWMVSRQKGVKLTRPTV
UniProt Q96A29: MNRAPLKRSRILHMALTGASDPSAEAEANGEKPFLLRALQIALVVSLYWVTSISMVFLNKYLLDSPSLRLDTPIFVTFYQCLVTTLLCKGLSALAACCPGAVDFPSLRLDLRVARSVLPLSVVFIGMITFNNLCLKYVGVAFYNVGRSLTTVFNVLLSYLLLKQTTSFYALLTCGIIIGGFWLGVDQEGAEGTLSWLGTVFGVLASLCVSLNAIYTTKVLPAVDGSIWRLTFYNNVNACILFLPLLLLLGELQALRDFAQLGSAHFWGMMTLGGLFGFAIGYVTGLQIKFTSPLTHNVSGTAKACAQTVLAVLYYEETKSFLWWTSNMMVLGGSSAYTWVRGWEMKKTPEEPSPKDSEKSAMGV
UniProt Q6P1K1: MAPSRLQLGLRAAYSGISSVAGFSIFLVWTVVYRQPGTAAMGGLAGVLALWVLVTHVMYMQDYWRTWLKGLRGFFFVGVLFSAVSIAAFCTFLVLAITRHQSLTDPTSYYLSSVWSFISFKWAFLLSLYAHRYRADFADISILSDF

compound: c1cn2cc(-c3ccc4cn[nH]c4c3)nc(Nc3ccc(N4CCOCC4)cc3)c2n1 [entospletinib]; assay: log2 fold change, soluble protein after heating vs DMSO (PISA); higher = thermal stabilisation; K562 cells, 10 uM, 30 min; active = over 0.2 and 3.5 SD of the protein, either way, in both replicates (recomputed)
Summary of the method: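 Soluble protein was defined as the supernatant after 21,000xg for 90 min. It came from K562 cells at 2×10^6 cells/mL given 10 μM compound for 30 min, heated in aliquots for 3 min across 48°C-58°C, pooled, and extracted in PBS with 0.5% NP-40 at 4°C, and was quantified by TMTpro 16plex LC-MS/MS with equalised channel sums. Thermal stability against control samples, from duplicates, is reported as log2 fold change.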

log2 fold change, inactive:
SLC15A4 (UniProt Q8N697) 0.076
SLC25A29 (UniProt Q8N8R3) -0.279
SLC3A2 (UniProt F5GZS6) -0.051
SLC25A35 (UniProt Q3KQZ1) -0.044
SLC35C2 isoform 3 (UniProt Q9NQQ7) 0.065
SLC66A1 (UniProt Q6ZP29) 0.072
SLC25A14 isoform 3 (UniProt O95258) 0.011
SLC52A2 (UniProt Q9HAB3) 0.048
SLC35E1 (UniProt Q96K37) 0.039
SLC50A1 (UniProt Q9BRV3) -0.128
SLC22A23 (UniProt A1A5C7) -0.144
SLC31A1 (UniProt O15431) 0.049
SLC10A7 isoform 1 (UniProt Q0GE19) -0.033
SLC35C1 (UniProt Q96A29) -0.068
SLC48A1 (UniProt Q6P1K1) 0.009

Already shown: entries from further up.
log2 fold change, inactive:
SLC25A35 (UniProt Q3KQZ1) -0.044
SLC35C2 isoform 3 (UniProt Q9NQQ7) 0.065
